Part of at least one peptide drawing is inferred or uncertain, most often the ends. Where a SMILES comes first, the peptide text is derived from it.
Molecular target: T1, GST-SHP-1.SH2(C) (Mus musculus, UniProt P29351)
T1 construct: recombinant fusion proteins corresponding to the isolated N- and C-SH2 domains of SHP-1; made in house; host or cells: E. coli DH5α
T1 sequence (P29351 110-213 limits assumed): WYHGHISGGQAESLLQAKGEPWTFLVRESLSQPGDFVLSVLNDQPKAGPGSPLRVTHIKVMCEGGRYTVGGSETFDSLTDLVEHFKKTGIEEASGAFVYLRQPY
Assay: Surface plasmon resonance, binding of phosphorylated KIR ITIM peptides to SHP-1 C-SH2 domain
Set-up: species or system murine
Conditions: calculated from koff/kon
Procedure: Fusion proteins and surface plasmon resonance analysis. Surface plasmon resonance (SPR) measurements were performed on a BIAcore™ (Pharmacia). The GST-SHP-1.SH2(NC), GST-SHP-1.SH2(N), GST-SHP-1.SH2(C), GST-SHIP.SH2 fusion proteins generated from the murine phosphatase cDNA, were purified from DH5α lysates. Briefly, overnight culture at 37°C in LB medium containing 50 µg/ml ampicillin was diluted 1/10 in fresh medium, and incubated until the absorbance at 600 nm reaches 1-2. At that point, IPTG was added (1mM), and incubation continued for an additional 4 hours at 37°C. […] Protein purity was assessed by 12.5 % SDS-PAGE, and Coomassie blue staining. […] Then, biotinylated peptides were injected, and their binding to streptavidine-coated microchips was assessed using anti-phosphotyrosine 4G10 mAb (UBI).
The measurement of phosphorylated p58.2 peptide binding to GST-SHP-1.SH2(N) and GST-SHP-1.SH2(C) fusion proteins was at a constant 5 µl/min flow rate. […] Results are expressed as corrected resonance units (CRU) corresponding to the raw RU values subtracted from background RU value due to the injection medium. In this representative experiment, 130 RU of p58.2.1 peptide and 160 RU of p58.2.2 peptide were immobilized on microchips. koff and kon were calculated from three independent measurements using the BIAevaluation 2.0 software. Kd was calculated from koff/kon.

CC(C)C[C@H](NC(=O)[C@H](CCC(N)=O)NC(=O)[C@H](C)NC(=O)[C@H](Cc1ccc(OP(=O)(O)O)cc1)NC(=O)[C@@H](NC(=O)[C@@H](NC(=O)[C@H](CCC(=O)O)NC(=O)[C@H](CCC(N)=O)NC(=O)[C@@H]1CCCN1C(=O)[C@H](CC(=O)O)NC(=O)[C@H](CCC(N)=O)NC(=O)[C@H](CCC(=O)O)NC(=O)[C@H](CC(=O)O)NC(=O)CCCC[C@@H]1SC[C@@H]2NC(=O)N[C@@H]21)C(C)C)[C@@H](C)O)C(=O)N[C@@H](CC(N)=O)C(=O)N[C@@H](Cc1c[nH]cn1)C(=O)O [p58.2.1, DEQDPQEVTY303AQLNH] (HELM PEPTIDE1{[O=C1N[C@H]2[C@H](CS[C@H]2CCCCC(=O)[*:2])N1].D.E.Q.D.P.Q.E.V.T.[O=C([C@H](Cc1ccc(OP(=O)(O)O)cc1)N[*:1])[*:2]].A.Q.L.N.H}$$$$V2.0)
Kd: 137 nM

Reference: patent EP0861891A1, “Compounds for modulating cell negative regulations and biological applications thereof” (INSTITUT NATIONAL DE LA SANTE ET DE LA RECHERCHE MEDICALE …, priority 1996, dated 1998)
